# According to US7846683B2, “Method for identifying agents which modulate cell growth or survival” (University of Medicine and Dentistry of New Jersey, priority 2004, dated 2010):
# At least one compound was matched to its structure with a doubt left.
# Assays:
# Akt = Akt expression and phosphorylation in hearts of wortmannin-treated wild-type and transgenic mice (western blot); format: in vivo, mouse
# [1] = system: hearts from transgenic mice; experiment: Apoptosis after ischemia/reperfusion in wortmannin-treated hearts; format: in vivo, mouse; conditions: wortmannin-treated hearts submitted to ischemia/reperfusion
# H11 kinase = H11 kinase expression in hearts of wortmannin-treated mice; format: in vivo, mouse; conditions: wild-type or transgenic mice treated with wortmannin
# PKCε = PKCε translocation from soluble to particulate fraction in transgenic mouse heart; format: in vivo; conditions: H11 kinase transgenic mice
smiles,measurement,setting,value
"COC[C@H]1OC(=O)c2coc3c2[C@@]1(C)C1=C(C3=O)[C@@H]2CCC(=O)[C@@]2(C)C[C@H]1OC(C)=O [wortmannin, Wortmannin]",phospho-Akt,"Akt; after administration of wortmannin, 3 mg/kg i.p. twice daily during three days, wild-type and transgenic mice, both groups",almost undetectable
same,expression of total Akt,Akt; wortmannin- vs vehicle-treated wild-type and transgenic mice,comparable among all groups
same,protection against apoptosis found in hearts from transgenic mice,[1],totally abolished
same,expression of H11 kinase,H11 kinase,did not affect
same,translocation of PKCε from the soluble to the particulate fraction,PKCε,blocked
